Source: the supplement of paper PMC10849652
The other results are listed elsewhere or left out.

Chains of the proteins cited; added tags and fusions are not shown. Lines headed by an entry give the natural chain unless they say otherwise; changes in a name come on top.
UniProt Q07817, whole entry, looked up: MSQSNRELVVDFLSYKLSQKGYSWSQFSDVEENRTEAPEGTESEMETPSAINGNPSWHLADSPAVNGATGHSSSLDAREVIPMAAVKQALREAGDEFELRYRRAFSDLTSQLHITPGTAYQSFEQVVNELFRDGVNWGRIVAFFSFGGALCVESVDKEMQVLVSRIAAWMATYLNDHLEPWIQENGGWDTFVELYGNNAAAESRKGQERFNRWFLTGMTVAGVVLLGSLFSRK
UniProt O14867: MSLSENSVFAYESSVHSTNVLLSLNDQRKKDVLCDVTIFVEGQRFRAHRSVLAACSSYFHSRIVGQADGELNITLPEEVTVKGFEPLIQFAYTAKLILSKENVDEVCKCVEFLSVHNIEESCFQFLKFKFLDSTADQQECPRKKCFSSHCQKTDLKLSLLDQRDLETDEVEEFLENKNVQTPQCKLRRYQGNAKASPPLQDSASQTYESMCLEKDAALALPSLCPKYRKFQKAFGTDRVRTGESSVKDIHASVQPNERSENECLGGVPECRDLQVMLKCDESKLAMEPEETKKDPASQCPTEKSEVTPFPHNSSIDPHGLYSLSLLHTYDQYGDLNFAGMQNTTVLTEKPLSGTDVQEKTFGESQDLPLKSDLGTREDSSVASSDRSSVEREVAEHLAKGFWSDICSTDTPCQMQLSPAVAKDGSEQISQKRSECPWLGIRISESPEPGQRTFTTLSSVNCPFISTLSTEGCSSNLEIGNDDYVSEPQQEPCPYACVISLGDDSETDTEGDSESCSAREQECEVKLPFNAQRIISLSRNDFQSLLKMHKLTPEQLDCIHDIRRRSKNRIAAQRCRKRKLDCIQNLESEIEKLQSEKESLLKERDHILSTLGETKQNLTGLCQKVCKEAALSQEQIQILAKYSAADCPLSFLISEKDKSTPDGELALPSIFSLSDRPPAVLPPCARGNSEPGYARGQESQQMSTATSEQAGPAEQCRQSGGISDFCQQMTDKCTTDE
UniProt Q6PJG6: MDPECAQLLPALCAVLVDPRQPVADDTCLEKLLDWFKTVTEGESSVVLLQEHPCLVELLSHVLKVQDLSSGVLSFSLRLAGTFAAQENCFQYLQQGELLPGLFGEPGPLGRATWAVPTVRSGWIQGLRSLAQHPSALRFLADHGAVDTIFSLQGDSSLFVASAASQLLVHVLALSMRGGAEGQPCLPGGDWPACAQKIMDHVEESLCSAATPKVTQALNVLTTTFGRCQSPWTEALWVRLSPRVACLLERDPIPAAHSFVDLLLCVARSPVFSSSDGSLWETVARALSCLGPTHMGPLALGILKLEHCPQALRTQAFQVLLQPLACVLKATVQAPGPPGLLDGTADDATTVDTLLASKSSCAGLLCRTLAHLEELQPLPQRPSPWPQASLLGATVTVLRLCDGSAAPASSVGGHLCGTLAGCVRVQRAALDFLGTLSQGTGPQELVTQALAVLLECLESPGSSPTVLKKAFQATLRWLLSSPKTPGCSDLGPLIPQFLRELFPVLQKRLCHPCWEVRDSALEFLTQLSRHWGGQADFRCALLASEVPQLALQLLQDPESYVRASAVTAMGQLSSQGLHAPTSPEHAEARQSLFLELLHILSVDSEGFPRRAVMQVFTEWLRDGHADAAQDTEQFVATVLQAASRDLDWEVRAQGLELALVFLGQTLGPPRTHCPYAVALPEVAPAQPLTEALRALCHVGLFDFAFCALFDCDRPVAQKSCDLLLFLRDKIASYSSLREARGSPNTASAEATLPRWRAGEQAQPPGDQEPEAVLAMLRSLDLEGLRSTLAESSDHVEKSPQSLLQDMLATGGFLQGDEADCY
UniProt Q9P287, whole entry, looked up: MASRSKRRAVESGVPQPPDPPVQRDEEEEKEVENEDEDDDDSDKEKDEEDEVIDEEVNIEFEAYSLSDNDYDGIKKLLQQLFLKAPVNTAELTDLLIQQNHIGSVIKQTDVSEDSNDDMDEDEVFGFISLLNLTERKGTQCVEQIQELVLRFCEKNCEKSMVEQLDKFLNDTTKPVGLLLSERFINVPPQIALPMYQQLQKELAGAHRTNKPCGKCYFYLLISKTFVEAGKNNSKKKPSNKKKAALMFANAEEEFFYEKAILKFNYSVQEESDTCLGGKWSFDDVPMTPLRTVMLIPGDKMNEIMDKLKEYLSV
UniProt P78537: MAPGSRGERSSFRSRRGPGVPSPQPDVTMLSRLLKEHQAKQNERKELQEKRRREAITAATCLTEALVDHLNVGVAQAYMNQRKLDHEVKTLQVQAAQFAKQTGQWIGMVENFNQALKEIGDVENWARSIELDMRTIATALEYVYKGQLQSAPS
UniProt P30043: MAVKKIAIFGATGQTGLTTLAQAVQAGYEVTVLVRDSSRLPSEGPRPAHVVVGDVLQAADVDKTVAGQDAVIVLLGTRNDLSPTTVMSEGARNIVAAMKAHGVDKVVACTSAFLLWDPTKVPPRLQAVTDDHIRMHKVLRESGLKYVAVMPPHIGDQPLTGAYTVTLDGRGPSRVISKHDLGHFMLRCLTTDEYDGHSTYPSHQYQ
UniProt Q8TD16, whole entry, looked up: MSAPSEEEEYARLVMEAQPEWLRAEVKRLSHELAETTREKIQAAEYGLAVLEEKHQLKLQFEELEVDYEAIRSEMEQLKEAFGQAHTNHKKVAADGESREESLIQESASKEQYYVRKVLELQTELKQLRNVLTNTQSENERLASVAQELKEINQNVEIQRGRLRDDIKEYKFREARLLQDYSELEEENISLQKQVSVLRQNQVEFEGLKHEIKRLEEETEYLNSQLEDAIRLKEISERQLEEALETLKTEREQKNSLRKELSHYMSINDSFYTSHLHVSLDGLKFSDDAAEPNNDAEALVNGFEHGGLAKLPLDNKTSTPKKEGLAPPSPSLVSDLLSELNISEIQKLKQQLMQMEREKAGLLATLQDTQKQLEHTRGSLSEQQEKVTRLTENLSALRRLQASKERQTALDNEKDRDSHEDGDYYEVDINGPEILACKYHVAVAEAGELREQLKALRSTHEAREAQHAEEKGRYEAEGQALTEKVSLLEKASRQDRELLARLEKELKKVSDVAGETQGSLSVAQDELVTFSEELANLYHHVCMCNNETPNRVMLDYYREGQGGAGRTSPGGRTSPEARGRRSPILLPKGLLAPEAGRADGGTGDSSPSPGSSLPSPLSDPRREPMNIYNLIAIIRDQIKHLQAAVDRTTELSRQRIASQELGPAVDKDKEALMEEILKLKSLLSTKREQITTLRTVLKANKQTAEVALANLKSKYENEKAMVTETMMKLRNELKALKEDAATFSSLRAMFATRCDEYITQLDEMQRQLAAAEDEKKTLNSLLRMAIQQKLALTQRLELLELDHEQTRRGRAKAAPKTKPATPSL
UniProt Q6QNY1: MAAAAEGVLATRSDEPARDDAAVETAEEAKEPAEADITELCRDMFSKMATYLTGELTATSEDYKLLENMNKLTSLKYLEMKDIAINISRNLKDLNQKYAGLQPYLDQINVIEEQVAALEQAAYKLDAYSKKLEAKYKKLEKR
UniProt O75531: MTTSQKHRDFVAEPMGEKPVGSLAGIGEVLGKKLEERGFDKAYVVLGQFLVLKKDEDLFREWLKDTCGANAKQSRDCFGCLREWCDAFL
UniProt O95429: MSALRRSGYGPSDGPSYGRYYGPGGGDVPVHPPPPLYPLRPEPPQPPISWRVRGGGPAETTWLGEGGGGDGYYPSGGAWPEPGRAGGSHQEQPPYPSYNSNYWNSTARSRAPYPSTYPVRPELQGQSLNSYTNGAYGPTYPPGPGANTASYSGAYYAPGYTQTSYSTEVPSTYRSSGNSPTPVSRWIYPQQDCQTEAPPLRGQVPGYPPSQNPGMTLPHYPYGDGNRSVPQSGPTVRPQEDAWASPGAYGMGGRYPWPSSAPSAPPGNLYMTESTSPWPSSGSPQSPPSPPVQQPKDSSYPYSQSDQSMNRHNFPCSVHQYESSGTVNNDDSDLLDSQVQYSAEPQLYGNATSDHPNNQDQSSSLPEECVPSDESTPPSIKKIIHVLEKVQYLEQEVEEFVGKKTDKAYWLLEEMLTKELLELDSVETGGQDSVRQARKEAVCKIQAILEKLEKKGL
UniProt Q9H6U6: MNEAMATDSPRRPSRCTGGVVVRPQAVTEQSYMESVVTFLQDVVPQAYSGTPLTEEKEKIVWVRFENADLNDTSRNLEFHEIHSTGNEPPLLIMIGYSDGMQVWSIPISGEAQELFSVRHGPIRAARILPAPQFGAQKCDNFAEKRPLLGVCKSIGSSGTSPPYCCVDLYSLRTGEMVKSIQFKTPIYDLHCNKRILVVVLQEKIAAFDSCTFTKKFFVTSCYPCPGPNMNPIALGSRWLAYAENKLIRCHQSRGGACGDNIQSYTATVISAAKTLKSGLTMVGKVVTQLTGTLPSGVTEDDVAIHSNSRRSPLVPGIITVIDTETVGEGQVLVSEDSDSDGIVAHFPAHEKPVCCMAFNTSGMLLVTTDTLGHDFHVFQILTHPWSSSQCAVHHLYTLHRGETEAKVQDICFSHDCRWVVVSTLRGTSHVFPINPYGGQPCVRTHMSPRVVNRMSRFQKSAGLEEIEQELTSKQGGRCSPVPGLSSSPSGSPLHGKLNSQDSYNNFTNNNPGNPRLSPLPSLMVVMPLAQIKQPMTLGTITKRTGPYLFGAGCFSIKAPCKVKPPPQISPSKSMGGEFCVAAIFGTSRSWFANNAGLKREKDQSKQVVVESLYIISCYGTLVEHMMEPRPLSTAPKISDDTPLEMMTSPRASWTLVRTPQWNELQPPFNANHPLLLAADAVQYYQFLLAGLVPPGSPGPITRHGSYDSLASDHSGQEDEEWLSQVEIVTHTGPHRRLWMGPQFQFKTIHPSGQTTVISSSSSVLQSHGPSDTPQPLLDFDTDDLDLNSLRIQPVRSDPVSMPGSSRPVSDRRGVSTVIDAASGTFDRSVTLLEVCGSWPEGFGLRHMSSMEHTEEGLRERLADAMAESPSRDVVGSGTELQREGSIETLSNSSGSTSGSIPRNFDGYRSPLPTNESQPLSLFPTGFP
UniProt Q9H3K6: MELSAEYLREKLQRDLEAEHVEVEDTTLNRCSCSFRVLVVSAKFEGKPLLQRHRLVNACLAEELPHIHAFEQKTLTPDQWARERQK
UniProt Q96KE9: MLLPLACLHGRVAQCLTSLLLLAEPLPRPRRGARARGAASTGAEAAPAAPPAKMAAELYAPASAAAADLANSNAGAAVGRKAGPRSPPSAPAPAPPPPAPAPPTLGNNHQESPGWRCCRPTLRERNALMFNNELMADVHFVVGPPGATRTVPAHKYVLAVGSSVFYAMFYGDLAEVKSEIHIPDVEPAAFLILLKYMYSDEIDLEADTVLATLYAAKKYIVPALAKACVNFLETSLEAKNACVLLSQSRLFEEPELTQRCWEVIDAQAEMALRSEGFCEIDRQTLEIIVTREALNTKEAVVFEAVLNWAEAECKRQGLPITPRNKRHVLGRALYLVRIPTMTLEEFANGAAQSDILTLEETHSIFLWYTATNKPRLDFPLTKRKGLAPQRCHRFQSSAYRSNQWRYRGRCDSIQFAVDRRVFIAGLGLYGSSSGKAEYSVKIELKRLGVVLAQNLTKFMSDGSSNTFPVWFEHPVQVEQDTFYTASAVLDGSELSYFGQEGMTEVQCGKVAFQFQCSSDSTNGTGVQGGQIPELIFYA
UniProt Q99728: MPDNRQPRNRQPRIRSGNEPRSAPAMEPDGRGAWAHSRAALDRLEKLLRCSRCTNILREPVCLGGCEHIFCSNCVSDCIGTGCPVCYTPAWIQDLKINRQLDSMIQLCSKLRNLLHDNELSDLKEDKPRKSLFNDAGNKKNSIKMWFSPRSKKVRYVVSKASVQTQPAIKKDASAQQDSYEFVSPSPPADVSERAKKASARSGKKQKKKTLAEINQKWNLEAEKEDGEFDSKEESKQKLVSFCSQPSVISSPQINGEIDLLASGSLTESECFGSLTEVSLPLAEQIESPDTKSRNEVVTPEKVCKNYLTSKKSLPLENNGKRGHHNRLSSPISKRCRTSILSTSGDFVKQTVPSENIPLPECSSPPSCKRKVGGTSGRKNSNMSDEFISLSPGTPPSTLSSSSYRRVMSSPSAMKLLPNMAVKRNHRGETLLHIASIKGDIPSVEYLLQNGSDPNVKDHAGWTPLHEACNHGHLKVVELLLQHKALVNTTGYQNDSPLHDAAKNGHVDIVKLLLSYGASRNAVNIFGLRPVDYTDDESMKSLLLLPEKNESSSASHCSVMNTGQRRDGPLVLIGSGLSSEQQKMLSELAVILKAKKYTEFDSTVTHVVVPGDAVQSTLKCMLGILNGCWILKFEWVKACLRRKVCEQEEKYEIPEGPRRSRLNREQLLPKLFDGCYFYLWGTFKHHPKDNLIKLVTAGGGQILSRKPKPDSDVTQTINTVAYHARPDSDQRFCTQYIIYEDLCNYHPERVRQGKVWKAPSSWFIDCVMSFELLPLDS

Columns and labels:
Test in all cases: log2 fold change, soluble protein after heating vs DMSO (PISA); higher = thermal stabilisation; K562 lysate, 10 uM; active = over 0.2 and 3.5 SD of the protein, either way, in both replicates (recomputed)
vemurafenib = compound: CCCS(=O)(=O)Nc1ccc(F)c(C(=O)c2c[nH]c3ncc(-c4ccc(Cl)cc4)cc23)c1F [vemurafenib]
How it was run: (§1)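 K562 pellets were dounce-homogenised in PBS pH 7.4 with 1 mM MgCl2, and the crude extract at 1 mg/mL protein was treated with 10 μM compound for 30 min. Aliquots were heated for 3 min across 48°C-58°C, pooled, and brought to 0.5% NP-40 at 4°C; soluble protein was the supernatant after 21,000xg for 90 min. Soluble protein was quantified by TMTpro 16plex LC-MS/MS with channel sums equalised, and reported as log2 fold change in thermal stability against DMSO controls, with values from duplicates.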

[1] = compound: CCCS(=O)(=O)Nc1ccc(F)c(C(=O)c2c[nH]c3ncc(Cl)cc23)c1F
How it was run: as §1

barasertib = compound: CCN(CCCOc1ccc2c(Nc3cc(CC(=O)Nc4cccc(F)c4)[nH]n3)ncnc2c1)CCOP(=O)(O)O [barasertib]
How it was run: as §1

[2] = compound: CC[C@@H]1C(=O)N(C)c2cnc(Nc3ccc(C(=O)NC4CCN(C)CC4)cc3OC)nc2N1C1CCCC1
How it was run: as §1

volasertib = compound: CC[C@@H]1C(=O)N(C)c2cnc(Nc3ccc(C(=O)N[C@H]4CC[C@H](N5CCN(CC6CC6)CC5)CC4)cc3OC)nc2N1C(C)C [volasertib]
How it was run: as §1

[3] = compound: CCn1c(C(=O)N(C2CC2)C2CC2)cc2c3c(ncn3C)c(Nc3cc(C)n(C)n3)nc21
How it was run: as §1

[4] = compound: CCn1cc(-c2ccnc3[nH]c(-c4cccc(CN(C)C)c4)cc23)c(-c2ccc(NC(=O)N(C)C)cc2)n1
How it was run: as §1

[5] = compound: CN1CCC(CNc2ccc3ncc(-c4cccc(OC(F)(F)F)c4)n3n2)CC1
How it was run: as §1

saracatinib = compound: CN1CCN(CCOc2cc(OC3CCOCC3)c3c(Nc4c(Cl)ccc5c4OCO5)ncnc3c2)CC1 [saracatinib]
How it was run: as §1

sotrastaurin = compound: CN1CCN(c2nc(C3=C(c4c[nH]c5ccccc45)C(=O)NC3=O)c3ccccc3n2)CC1 [sotrastaurin]
How it was run: as §1

alvocidib = compound: CN1CC[C@H](c2c(O)cc(O)c3c(=O)cc(-c4ccccc4Cl)oc23)[C@H](O)C1 [alvocidib]
How it was run: as §1

Tubastatin A = compound: CN1CCc2c(c3ccccc3n2Cc2ccc(C(=O)NO)cc2)C1 [Tubastatin A]
How it was run: as §1

[6] = compound: CNC(=O)C1=CC=CC=C1NC2=NC(=NC=C2Cl)NC3=C(C=C(C=C3)N4CCOCC4)OC
How it was run: as §1

defactinib = compound: CNC(=O)c1ccc(Nc2ncc(C(F)(F)F)c(NCc3nccnc3N(C)S(C)(=O)=O)n2)cc1 [defactinib]
How it was run: as §1

[7] = compound: CNc1nc(-c2ccc3c(N)n[nH]c3c2)cc(N2C[C@@H](C(=O)NC3CCCCC3)CC[C@H]2C)n1
How it was run: as §1

encorafenib = compound: COC(=O)N[C@@H](C)CNc1nccc(-c2cn(C(C)C)nc2-c2cc(Cl)cc(NS(C)(=O)=O)c2F)n1 [encorafenib]
How it was run: as §1

[8] = compound: COC(=O)[C@H](CCSC)NC(=O)C1=C(C=C(C=C1)NC[C@H](CS)N)C2=CC=CC=C2
How it was run: as §1

alisertib = compound: COc1cc(Nc2ncc3c(n2)-c2ccc(Cl)cc2C(c2c(F)cccc2OC)=NC3)ccc1C(=O)O [alisertib]
How it was run: as §1

[9] = compound: COc1cc2nc(-c3cc(F)ccc3O)nc(N[C@@H]3CNC[C@H]3C(C)(C)O)c2cc1OC
How it was run: as §1

gefitinib = compound: COc1cc2ncnc(Nc3ccc(F)c(Cl)c3)c2cc1OCCCN1CCOCC1 [gefitinib]
How it was run: as §1

Measured: log2 fold change

BCL2L1 (UniProt Q07817)
inactive: vemurafenib -0.015 | [1] 0.001 | barasertib 0.11 | [2] 0.047 | volasertib 0.033 | [3] 0.029 | [4] -0.111 | [5] 0.099 | saracatinib -0.021 | sotrastaurin 0.004 | alvocidib -0.045 | Tubastatin A -0.004 | [6] -0.002 | defactinib -0.01 | [7] 0.03 | encorafenib 0.052 | [8] -0.059 | alisertib 0 | [9] 0.007 | gefitinib 0.013

BACH1 (UniProt O14867)
inactive: vemurafenib 0.017 | [1] 0.034 | barasertib 0.07 | [2] 0.025 | volasertib -0.014 | [3] -0.038 | [4] 0.007 | [5] 0.008 | saracatinib 0.045 | sotrastaurin 0.035 | alvocidib -0.012 | Tubastatin A 0.024 | [6] 0.012 | defactinib -0.005 | [7] -0.033 | encorafenib -0.009 | [8] -0.006 | alisertib -0.056 | [9] -0.011 | gefitinib 0.015

BRAT1 (UniProt Q6PJG6)
inactive: vemurafenib 0.011 | [1] -0.014 | barasertib 0.042 | [2] -0.086 | volasertib -0.046 | [3] 0.055 | [4] -0.023 | [5] -0.007 | saracatinib 0.016 | sotrastaurin 0.037 | alvocidib -0.018 | Tubastatin A -0.143 | [6] 0.031 | defactinib -0.046 | [7] -0.041 | encorafenib 0.01 | [8] 0.024 | alisertib -0.008 | [9] 0.018 | gefitinib -0.007

BCCIP (UniProt Q9P287)
inactive: vemurafenib -0.016 | [1] 0.013 | barasertib -0.009 | [2] -0.035 | volasertib -0.006 | [3] 0.063 | [4] 0.024 | [5] -0.055 | saracatinib -0.04 | sotrastaurin 0.05 | alvocidib 0.024 | Tubastatin A -0.012 | [6] 0.017 | defactinib 0.016 | [7] -0.017 | encorafenib 0.02 | [8] -0.016 | alisertib 0.003 | [9] -0.004 | gefitinib -0.009

BLOC1S1 (UniProt P78537)
inactive: vemurafenib 0.074 | [1] 0.003 | barasertib 0.045 | [2] 0.027 | volasertib 0.008 | [3] 0.055 | [4] -0.001 | [5] -0.003 | saracatinib 0.046 | sotrastaurin -0.011 | alvocidib 0.032 | Tubastatin A 0.06 | [6] 0.038 | defactinib 0.04 | [7] 0.032 | encorafenib 0.074 | [8] -0.094 | alisertib 0.083 | [9] -0.004 | gefitinib 0.006

BRD8 isoform 2 (UniProt Q9H0E9)
inactive: vemurafenib -0.024 | [1] 0.055 | barasertib 0 | [2] 0.04 | volasertib 0.01 | [3] -0.007 | [4] 0.015 | [5] 0.005 | saracatinib -0.014 | sotrastaurin 0.017 | alvocidib -0.003 | Tubastatin A -0.005 | [6] 0.038 | defactinib 0.003 | [7] 0.012 | encorafenib 0.017 | [8] -0.074 | alisertib -0.003 | [9] -0.005 | gefitinib 0.009

BCL9L (UniProt Q86UU0)
inactive: vemurafenib -0.023 | [1] 0.038 | barasertib -0.02 | volasertib 0.03 | [3] -0.055 | [4] 0.044 | [5] 0.058 | saracatinib 0.031 | sotrastaurin 0.016 | alvocidib -0.049 | Tubastatin A 0.205 | [6] -0.015 | defactinib 0.093 | [7] 0.087 | alisertib 0.005 | [9] 0.012 | gefitinib -0.051

BLVRB (UniProt P30043)
inactive: vemurafenib 0.012 | [1] -0.012 | barasertib 0.006 | [2] -0.001 | volasertib -0.027 | [3] 0.045 | [4] -0.048 | [5] 0.002 | saracatinib -0.022 | sotrastaurin 0.017 | alvocidib -0.003 | Tubastatin A -0.04 | [6] 0.041 | defactinib -0.018 | [7] -0.021 | encorafenib -0.001 | [8] 0.011 | alisertib -0.003 | [9] 0.009 | gefitinib 0.027

2 entries drawn at random from the list so far, as already listed:
BACH1 (UniProt O14867)
inactive: vemurafenib 0.017 | [1] 0.034 | barasertib 0.07 | [2] 0.025 | volasertib -0.014 | [3] -0.038 | [4] 0.007 | [5] 0.008 | saracatinib 0.045 | sotrastaurin 0.035 | alvocidib -0.012 | Tubastatin A 0.024 | [6] 0.012 | defactinib -0.005 | [7] -0.033 | encorafenib -0.009 | [8] -0.006 | alisertib -0.056 | [9] -0.011 | gefitinib 0.015

BLVRB (UniProt P30043)
inactive: vemurafenib 0.012 | [1] -0.012 | barasertib 0.006 | [2] -0.001 | volasertib -0.027 | [3] 0.045 | [4] -0.048 | [5] 0.002 | saracatinib -0.022 | sotrastaurin 0.017 | alvocidib -0.003 | Tubastatin A -0.04 | [6] 0.041 | defactinib -0.018 | [7] -0.021 | encorafenib -0.001 | [8] 0.011 | alisertib -0.003 | [9] 0.009 | gefitinib 0.027

Following part.

BICD2 isoform 2 (UniProt Q8TD16)
inactive: vemurafenib 0 | [1] 0.01 | barasertib 0.02 | [2] 0.012 | volasertib 0.002 | [3] 0.001 | [4] 0.023 | [5] -0.03 | saracatinib -0.03 | sotrastaurin 0.021 | alvocidib -0.005 | Tubastatin A 0.039 | [6] -0.001 | defactinib -0.035 | [7] 0.022 | encorafenib -0.001 | [8] 0.01 | alisertib -0.008 | [9] -0.003 | gefitinib 0.015

BLOC1S2 (UniProt Q6QNY1)
inactive: vemurafenib 0.097 | [1] -0.009 | barasertib 0.082 | [2] 0.102 | volasertib 0.057 | [4] -0.032 | [5] 0.146 | saracatinib -0.081 | sotrastaurin 0.315 | alvocidib -0.037 | [6] -0.009 | defactinib 0.006 | [7] 0 | encorafenib 0.032 | [8] -0.061 | alisertib 0.024 | [9] -0.031 | gefitinib 0.066

BANF1 (UniProt O75531)
inactive: vemurafenib 0.178 | [1] -0.013 | barasertib 0.035 | [2] -0.016 | volasertib 0.045 | [3] 0.009 | [4] -0.065 | [5] 0 | saracatinib 0.004 | sotrastaurin -0.154 | alvocidib -0.069 | Tubastatin A 0.127 | [6] 0.003 | defactinib 0.036 | [7] 0.035 | encorafenib -0.016 | [8] -0.045 | alisertib 0.052 | [9] -0.005 | gefitinib -0.042

BAG4 (UniProt O95429)
inactive: vemurafenib -0.055 | [1] 0 | barasertib 0.048 | [2] 0.004 | volasertib -0.003 | [3] 0.036 | [4] -0.037 | [5] 0.102 | saracatinib 0.018 | sotrastaurin -0.043 | alvocidib 0.04 | Tubastatin A -0.096 | [6] -0.01 | defactinib -0.001 | [7] 0.023 | encorafenib -0.032 | [8] 0.005 | alisertib -0.023 | [9] 0.003 | gefitinib 0.039

BCAS3 isoform 8 (UniProt Q9H6U6)
inactive: vemurafenib 0.025 | [1] 0.03 | barasertib -0.089 | [2] 0.054 | volasertib -0.023 | [3] 0.032 | [4] 0.01 | [5] 0.105 | saracatinib 0.041 | sotrastaurin -0.042 | alvocidib -0.13 | Tubastatin A 0.021 | [6] -0.05 | defactinib -0.006 | [7] 0.113 | encorafenib -0.108 | [8] -0.066 | [9] 0.017

BOLA2 (UniProt Q9H3K6)
active: [4] 0.604
inactive: vemurafenib -0.086 | [1] -0.043 | barasertib 0.129 | [2] -0.068 | volasertib 0.004 | [3] 0.067 | [5] -0.04 | saracatinib -0.033 | sotrastaurin -0.038 | alvocidib 0.02 | Tubastatin A 0.015 | [6] -0.065 | defactinib 0.023 | [7] -0.052 | encorafenib 0.036 | [8] -0.057 | alisertib -0.006 | [9] 0.009 | gefitinib -0.03

BTBD6 (UniProt Q96KE9)
inactive: vemurafenib 0.137 | [1] 0.039 | barasertib -0.037 | [2] 0.299 | volasertib 0.053 | [3] -0.33 | [4] -0.52 | [5] 0.301 | saracatinib 0.044 | sotrastaurin -0.042 | alvocidib -0.218 | Tubastatin A 0.241 | [6] 0.005 | defactinib 0 | [7] 0.733 | encorafenib -0.104 | [8] 0.05 | alisertib 0.073 | [9] 0.134 | gefitinib -0.017

BARD1 (UniProt Q99728)
inactive: vemurafenib 0.074 | [1] 0.221 | barasertib -0.056 | [2] 0.024 | volasertib 0 | [3] 0 | [4] -0.135 | [5] -0.005 | saracatinib -0.042 | sotrastaurin 0.073 | alvocidib 0.016 | Tubastatin A -0.05 | [6] 0.019 | defactinib 0.213 | [7] 0.03 | encorafenib -0.014 | [8] -0.029 | alisertib -0.027 | [9] -0.035 | gefitinib 0.005
